These are yes or no findings as the source states them, for the method shown. Binding seen in cells or lysates may run through a third protein. These calls come from enrichment with a bait or labelling near it, and not all partners need be listed.
Tests used:
[1] = biological target: WT menin-GFP (human) (UniProt O00255); test: affinity purification with mass spectrometry; GFP-Trap agarose beads against control agarose beads; 1 mg nuclear extract of HeLa cells induced with doxycycline for 24 h; binding buffer 20 mM Hepes-KOH pH 7.9, 300 mM NaCl, 20% glycerol, 0.1% NP-40; 4 °C, 1 h; triplicates; label-free LFQ and iBAQ, FDR 0.01, s0 2
[2] = biological target: menin E408Q-GFP (human) (UniProt O00255); test: as above
[3] = biological target: menin Q141R-GFP (human) (UniProt O00255); test: as above
[4] = biological target: menin E366D-GFP (human) (UniProt O00255); test: as above
[5] = biological target: menin E359K-GFP (human) (UniProt O00255); test: as above
[6] = biological target: menin R322H-GFP (human); test: as above
[7] = biological target: WT menin-GFP (human) (UniProt O00255); test: affinity purification with mass spectrometry; GFP-Trap agarose beads against control agarose beads; 3 mg cytoplasmic extract of HeLa cells induced with doxycycline for 24 h; binding buffer 20 mM Hepes-KOH pH 7.9, 300 mM NaCl, 20% glycerol, 0.1% NP-40; 4 °C, 1 h; triplicates; label-free LFQ and iBAQ, FDR 0.01, s0 2
[8] = biological target: menin E408Q-GFP (human) (UniProt O00255); test: as above
[9] = biological target: menin E359K-GFP (human) (UniProt O00255); test: as above
[10] = biological target: menin L168P-GFP (human) (UniProt O00255); test: as above
[11] = biological target: menin Q141R-GFP (human) (UniProt O00255); test: as above
[12] = biological target: menin E255K-GFP (human) (UniProt O00255); test: as above
[13] = biological target: menin R322H-GFP (human); test: as above
[14] = biological target: menin L264P-GFP (human) (UniProt O00255); test: as above
[15] = biological target: menin E366D-GFP (human) (UniProt O00255); test: as above
[16] = biological target: menin R52G-GFP (human) (UniProt O00255); test: as above

Sequences of proteins named here, by UniProt entry; tags and fusion partners are left off.
UniProt Q03164: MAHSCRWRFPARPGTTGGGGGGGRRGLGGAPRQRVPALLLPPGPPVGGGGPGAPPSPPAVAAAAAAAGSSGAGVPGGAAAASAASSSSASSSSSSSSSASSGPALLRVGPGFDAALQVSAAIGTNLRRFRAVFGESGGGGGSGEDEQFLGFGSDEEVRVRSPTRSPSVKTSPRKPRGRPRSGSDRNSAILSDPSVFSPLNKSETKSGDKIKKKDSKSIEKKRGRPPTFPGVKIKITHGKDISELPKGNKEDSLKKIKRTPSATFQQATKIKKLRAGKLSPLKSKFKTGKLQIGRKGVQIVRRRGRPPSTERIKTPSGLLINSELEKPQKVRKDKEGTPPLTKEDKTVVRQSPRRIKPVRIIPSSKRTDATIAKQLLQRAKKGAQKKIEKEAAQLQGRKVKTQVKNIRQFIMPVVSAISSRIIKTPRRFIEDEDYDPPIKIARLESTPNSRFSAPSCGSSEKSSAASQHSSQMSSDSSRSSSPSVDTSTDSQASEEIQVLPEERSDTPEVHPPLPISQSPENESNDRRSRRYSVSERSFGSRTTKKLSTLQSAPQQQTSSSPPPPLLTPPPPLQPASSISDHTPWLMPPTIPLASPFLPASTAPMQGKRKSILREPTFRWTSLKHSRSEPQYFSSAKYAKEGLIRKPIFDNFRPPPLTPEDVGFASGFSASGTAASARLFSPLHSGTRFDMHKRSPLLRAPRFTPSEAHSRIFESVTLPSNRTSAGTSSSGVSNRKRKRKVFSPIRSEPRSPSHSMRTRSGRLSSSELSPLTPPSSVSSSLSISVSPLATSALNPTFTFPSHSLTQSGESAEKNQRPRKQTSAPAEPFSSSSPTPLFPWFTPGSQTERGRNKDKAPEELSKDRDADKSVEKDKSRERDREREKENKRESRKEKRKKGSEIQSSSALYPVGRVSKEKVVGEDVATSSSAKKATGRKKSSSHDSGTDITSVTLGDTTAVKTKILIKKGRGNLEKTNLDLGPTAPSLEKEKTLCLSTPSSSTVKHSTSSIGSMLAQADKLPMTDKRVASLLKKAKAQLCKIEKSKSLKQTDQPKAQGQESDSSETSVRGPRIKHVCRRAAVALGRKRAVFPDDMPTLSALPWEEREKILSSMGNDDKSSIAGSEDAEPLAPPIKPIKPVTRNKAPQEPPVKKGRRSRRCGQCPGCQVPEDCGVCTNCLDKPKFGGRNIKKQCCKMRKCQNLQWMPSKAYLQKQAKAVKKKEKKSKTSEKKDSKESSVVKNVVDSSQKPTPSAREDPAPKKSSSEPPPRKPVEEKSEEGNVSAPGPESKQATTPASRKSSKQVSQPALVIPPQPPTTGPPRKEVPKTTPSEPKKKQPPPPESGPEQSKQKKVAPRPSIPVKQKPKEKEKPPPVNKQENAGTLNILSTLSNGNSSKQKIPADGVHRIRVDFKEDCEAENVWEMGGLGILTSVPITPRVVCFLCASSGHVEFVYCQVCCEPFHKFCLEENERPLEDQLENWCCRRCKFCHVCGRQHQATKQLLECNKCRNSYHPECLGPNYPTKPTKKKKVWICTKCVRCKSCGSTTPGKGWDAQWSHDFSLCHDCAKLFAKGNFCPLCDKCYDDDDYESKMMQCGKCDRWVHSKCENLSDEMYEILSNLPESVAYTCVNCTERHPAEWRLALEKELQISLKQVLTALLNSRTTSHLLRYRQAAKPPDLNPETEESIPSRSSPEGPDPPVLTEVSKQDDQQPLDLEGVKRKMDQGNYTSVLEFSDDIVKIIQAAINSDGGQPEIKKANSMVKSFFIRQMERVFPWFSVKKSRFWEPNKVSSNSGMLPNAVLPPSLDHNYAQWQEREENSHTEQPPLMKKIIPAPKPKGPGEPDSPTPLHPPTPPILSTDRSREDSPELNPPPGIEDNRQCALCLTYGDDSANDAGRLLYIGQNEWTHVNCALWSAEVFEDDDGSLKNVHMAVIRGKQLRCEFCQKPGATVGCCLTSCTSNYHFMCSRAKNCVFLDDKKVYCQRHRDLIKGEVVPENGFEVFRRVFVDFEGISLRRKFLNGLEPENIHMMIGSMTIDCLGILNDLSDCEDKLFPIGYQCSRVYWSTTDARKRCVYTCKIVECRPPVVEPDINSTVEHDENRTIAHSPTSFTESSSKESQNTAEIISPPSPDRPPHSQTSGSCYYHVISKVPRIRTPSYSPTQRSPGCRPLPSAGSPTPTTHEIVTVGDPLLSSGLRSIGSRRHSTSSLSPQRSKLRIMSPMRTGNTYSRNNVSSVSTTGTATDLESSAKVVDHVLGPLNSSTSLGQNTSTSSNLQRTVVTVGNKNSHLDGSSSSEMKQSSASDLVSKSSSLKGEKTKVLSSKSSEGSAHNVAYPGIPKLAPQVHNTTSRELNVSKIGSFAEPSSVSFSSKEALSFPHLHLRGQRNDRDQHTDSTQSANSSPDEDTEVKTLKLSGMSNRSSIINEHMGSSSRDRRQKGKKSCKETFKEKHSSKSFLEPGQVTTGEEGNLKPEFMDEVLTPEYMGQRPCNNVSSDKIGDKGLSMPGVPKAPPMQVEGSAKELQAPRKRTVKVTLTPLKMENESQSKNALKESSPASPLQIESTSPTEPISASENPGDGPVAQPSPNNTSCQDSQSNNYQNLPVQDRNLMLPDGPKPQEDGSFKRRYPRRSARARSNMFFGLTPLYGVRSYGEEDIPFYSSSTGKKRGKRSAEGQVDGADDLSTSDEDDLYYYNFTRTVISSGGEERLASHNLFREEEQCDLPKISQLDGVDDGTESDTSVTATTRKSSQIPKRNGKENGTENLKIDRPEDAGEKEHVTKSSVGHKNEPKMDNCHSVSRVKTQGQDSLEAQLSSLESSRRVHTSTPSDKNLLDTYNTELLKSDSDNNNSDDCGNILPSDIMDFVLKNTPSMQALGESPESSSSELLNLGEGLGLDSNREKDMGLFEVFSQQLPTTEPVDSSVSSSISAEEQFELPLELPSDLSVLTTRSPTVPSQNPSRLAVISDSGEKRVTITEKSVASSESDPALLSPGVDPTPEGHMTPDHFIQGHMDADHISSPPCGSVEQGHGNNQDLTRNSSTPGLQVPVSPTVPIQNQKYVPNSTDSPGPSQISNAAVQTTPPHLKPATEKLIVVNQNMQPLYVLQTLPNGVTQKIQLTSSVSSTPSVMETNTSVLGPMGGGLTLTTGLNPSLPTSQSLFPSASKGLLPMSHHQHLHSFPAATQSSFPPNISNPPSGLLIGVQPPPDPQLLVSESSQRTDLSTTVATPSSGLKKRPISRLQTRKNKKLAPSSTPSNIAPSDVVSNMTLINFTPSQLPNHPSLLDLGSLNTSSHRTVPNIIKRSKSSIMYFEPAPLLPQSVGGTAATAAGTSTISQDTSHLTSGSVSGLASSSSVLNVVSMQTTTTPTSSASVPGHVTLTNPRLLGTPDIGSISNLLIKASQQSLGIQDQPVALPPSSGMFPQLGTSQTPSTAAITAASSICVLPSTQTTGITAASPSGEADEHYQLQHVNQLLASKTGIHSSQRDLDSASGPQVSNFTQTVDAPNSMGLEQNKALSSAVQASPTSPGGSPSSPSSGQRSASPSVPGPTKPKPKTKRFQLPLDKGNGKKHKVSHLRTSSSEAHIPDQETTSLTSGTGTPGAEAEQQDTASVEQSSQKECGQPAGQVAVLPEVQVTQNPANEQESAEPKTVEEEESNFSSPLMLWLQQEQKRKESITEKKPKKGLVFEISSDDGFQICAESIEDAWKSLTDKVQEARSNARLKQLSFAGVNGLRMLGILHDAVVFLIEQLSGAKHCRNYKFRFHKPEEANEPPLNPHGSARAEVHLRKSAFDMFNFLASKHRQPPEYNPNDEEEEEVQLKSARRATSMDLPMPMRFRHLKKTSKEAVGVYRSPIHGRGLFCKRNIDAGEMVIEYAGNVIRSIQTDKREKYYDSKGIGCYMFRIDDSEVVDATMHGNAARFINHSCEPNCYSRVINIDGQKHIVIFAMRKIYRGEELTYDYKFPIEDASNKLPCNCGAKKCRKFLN

Measured: binding

KMT2B (from UniProt Q9UMN6 1-2715)
binds: [1] | [2] | [3] | [4]

KMT2A (from UniProt Q03164 1-3969)
binds: [1] | [2] | [3] | [4]

B1: JunD (protein, UniProt P17535 1-347)
chain: METPFYGDEALSGLGGGASGSGGSFASPGRLFPGAPPTAAAGSMMKKDALTLSLSEQVAAALKPAAAPPPTPLRADGAPSAAPPDGLLASPDLGLLKLASPELERLIIQSNGLVTTTPTSSQFLYPKVAASEEQEFAEGFVKALEDLHKQNQLGAGAAAAAAAAAAGGPSGTATGSAPPGELAPAAAAPEAPVYANLSSYAGGAGGAGGAATVAFAAEPVPFPPPPPPGALGPPRLAALKDEPQTVPDVPSFGESPPLSPIDMDTQERIKAERKRLRNRIAASKCRKRKLERISRLEEKVKTLKSQNTELASTASLLREQVAQLKQKVLSHVNSGCQLLPQHQVPAY
binds: [1] | [2] | [5] | [3] | [6] | [4]

B2: HCFC2 (protein, UniProt Q9Y5Z7 1-792)
chain: MAAPSLLNWRRVSSFTGPVPRARHGHRAVAIRELMIIFGGGNEGIADELHVYNTATNQWFLPAVRGDIPPGCAAHGFVCDGTRILVFGGMVEYGRYSNELYELQASRWLWKKVKPHPPPSGLPPCPRLGHSFSLYGNKCYLFGGLANESEDSNNNVPRYLNDFYELELQHGSGVVGWSIPVTKGVVPSPRESHTAVIYCKKDSGSPKMYVFGGMCGARLDDLWQLDLETMSWSKPETKGTVPLPRSLHTASVIGNKMYIFGGWVPHKGENTETSPHDCEWRCTSSFSYLNLDTTEWTTLVSDSQEDKKNSRPRPRAGHCAVAIGTRLYFWSGRDGYKKALNSQVCCKDLWYLDTEKPPAPSQVQLIKATTNSFHVKWDEVSTVEGYLLQLSTDLPYQAASSDSSAAPNMQGVRMDPHRQGSNNIVPNSINDTINSTKTEQPATKETSMKNKPDFKALTDSNAILYPSLASNASNHNSHVVDMLRKNEGPHTSANVGVLSSCLDVRTVIPETSVSSTVSSTQTMVTQQTIKTESSSTNGAVVKDETSLTTFSTKSEVDETYALPATKISRVETHATATPFSKETPSNPVATVKAGERQWCDVGIFKNNTALVSQFYLLPKGKQSISKVGNADVPDYSLLKKQDLVPGTGYRFRVAAINGCGIGPFSKISEFKTCIPGFPGAPSAVRISKNVEGIHLSWEPPTSPSGNILEYSAYLAIRTAQIQDNPSQLVFMRIYCGLKTSCIVTAGQLANAHIDYTSRPAIVFRISAKNEKGYGPATQVRWLQGNNKKAPLN
binds: [1] | [2] | [6] | [4]

B3: ATF7 (protein, UniProt P17544 1-483)
chain: MGDDRPFVCNAPGCGQRFTNEDHLAVHKHKHEMTLKFGPARTDSVIIADQTPTPTRFLKNCEEVGLFNELASSFEHEFKKAADEDEKKAAAGPLDMSLPSTPDIKIKEEEPVEVDSSPPDSPASSPCSPPLKEKEVTPKPVLISTPTPTIVRPGSLPLHLGYDPLHPTLPSPTSVITQAPPSNRQMGSPTGSLPLVMHLANGQTMPVLPGPPVQMPSVISLARPVSMVPNIPGIPGPPVNSSGSISPSGHPIPSEAKMRLKATLTHQVSSINGGCGMVVGTASTMVTARPEQSQILIQHPDAPSPAQPQVSPAQPTPSTGGRRRRTVDEDPDERRQRFLERNRAAASRCRQKRKLWVSSLEKKAEELTSQNIQLSNEVTLLRNEVAQLKQLLLAHKDCPVTALQKKTQGYLESPKESSEPTGSPAPVIQHSSATAPSNGLSVRSAAEAVATSVLTQMASQRTELSMPIQSHVIMTPQSQSAGR
binds: [1] | [2] | [6] | [4]

B4: BAG5 (protein, UniProt Q9UL15 1-447)
chain: MDMGNQHPSISRLQEIQKEVKSVEQQVIGFSGLSDDKNYKKLERILTKQLFEIDSVDTEGKGDIQQARKRAAQETERLLKELEQNANHPHRIEIQNIFEEAQSLVREKIVPFYNGGNCVTDEFEEGIQDIILRLTHVKTGGKISLRKARYHTLTKICAVQEIIEDCMKKQPSLPLSEDAHPSVAKINFVMCEVNKARGVLIALLMGVNNNETCRHLSCVLSGLIADLDALDVCGRTEIRNYRREVVEDINKLLKYLDLEEEADTTKAFDLRQNHSILKIEKVLKRMREIKNELLQAQNPSELYLSSKTELQGLIGQLDEVSLEKNPCIREARRRAVIEVQTLITYIDLKEALEKRKLFACEEHPSHKAVWNVLGNLSEIQGEVLSFDGNRTDKNYIRLEELLTKQLLALDAVDPQGEEKCKAARKQAVRLAQNILSYLDLKSDEWEY
binds: [7] | [8] | [9] | [10] | [11] | [12] | [13] | [14] | [15] | [16]

Reference: article PMC9361535
